# Reference: PubChem BioAssay AID504467 (National Center for Advancing Translational Sciences (NCATS), 2011)
# In all, about 330,000 compounds went through this assay and about 7,700 (2.3%) were called active. Inconclusive means that the source gave no clear call. Such entries were picked first, then a sample of the others. Calls follow the shape of the dose curve; as a rule, active = well fitted inhibition curve with a large enough effect; inconclusive = small, poorly fitted or top-dose-only effect, or effect the other way; inactive = flat fitted curve, though single readings scatter. Potencies of inconclusive entries are doubtful fits and often do not repeat.
# Test: qHTS screen for small molecules that inhibit ELG1-dependent DNA repair in human embryonic kidney (HEK293T) cells expressing luciferase-tagged ELG1; also: nearly all actives have a fitted effect of over 55% in size
# Settings: HEK293T ELG1-luciferase reporter, luminescence, 16 h, DNA damage induced by 5-fluorouridine; activity change, negative = inhibition: at 46.1 µM (top of the series)
# Procedure, shortened: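 DMSO vehicle served as the neutral condition. Each well held 2,000 cells given 5-fluorouridine plus compound; after 16 hr at 37 °C/5% CO2, ONE-Glo was added and luciferase measured 30 min later.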
# % is scaled to controls: 0 for no effect and ±100 for the full control effect; potency is read from the fitted curve at half-maximal effect.
SMILES,Potency,"activity change, negative = inhibition"
CN1CCC(=O)N(CCOc2ccccc2)CC1,"inconclusive: 1.3 µM [inhibitor, single point]",–
Cc1csc(CNc2ncnc3ccc(-c4ccoc4)cc23)c1,"inconclusive: 5.8 µM [inhibitor, full curve, poor fit]",–
CCc1ccccc1NC(=O)/C(=C/c1ccco1)c1ccccc1,"inconclusive: 18.4 µM [inhibitor, single point]",–
COc1ccc(-c2nnc(SCC(=O)/C(C#N)=C(\C)N)o2)cc1,"inconclusive: 2.06 µM [activator, partial curve]",–
OCCN(CCO)c1ccc(C(c2ccc(Cl)cc2)c2ccc(N(CCO)CCO)cc2Cl)c(Cl)c1,–,inactive: -0.11%
Cc1ccc(NC(=O)CCNC(=O)c2ccc(Br)cc2)cc1S(=O)(=O)N1CCOCC1,"inconclusive: 29.1 µM [inhibitor, single point]",–
CCC(=O)Nc1ccc(S(=O)(=O)N2CCc3ccccc32)cc1,–,inactive: -8.87%
O=C(N/N=C/c1cc(Br)cc(Br)c1O)c1ccncc1,"inconclusive: 3.26 µM [inhibitor, full curve]",–
Cc1ccc(NC(=O)c2ccc(COc3ccccc3[N+](=O)[O-])o2)nc1,"inconclusive: 25.9 µM [activator, single point]",–
CC1CCc2nc(NC(=O)c3ccco3)sc2C1 (centres undefined),"inconclusive: 0.206 µM [activator, partial curve, poor fit]",–
COc1cccc(-c2cc(C(=O)Nc3ccc4c(c3)OCO4)no2)c1,"inconclusive: 4.61 µM [activator, partial curve]",–
CN(C(=O)c1ccco1)c1nnc(-c2ccc(F)cc2)s1,"inconclusive: 6.51 µM [activator, partial curve]",–
CC(C)CC(C(=O)Nc1oc(-c2ccccc2)c(-c2ccccc2)c1C#N)N1C(=O)c2ccccc2C1=O (centres undefined),"inconclusive: 20.6 µM [inhibitor, single point]",–
Cc1ccccc1OCC(=O)Nc1nc(-c2ccncc2)cs1,"inconclusive: 16.4 µM [inhibitor, single point]",–
COc1ccc(C2=NN3C(C2)c2ccccc2OC3c2cccs2)cc1 (centres undefined),"inconclusive: 20.6 µM [activator, partial curve]",–
O=C(N=Nc1c(O)[nH]c2ccc([N+](=O)[O-])cc12)c1ccccc1Cl,"inconclusive: 29.1 µM [inhibitor, single point]",–
Cc1cc2nc3c(c(=O)n2[nH]1)CCCC3,"inconclusive: 25.9 µM [activator, partial curve, poor fit]",–
COCC(C)NC(=O)CSc1nc2ccccc2c(=O)n1CCc1ccc(S(N)(=O)=O)cc1 (centres undefined),"inconclusive: 11.6 µM [inhibitor, partial curve, poor fit]",–
O=c1c2sccc2nc(SCc2cc(=O)n3ccccc3n2)n1-c1ccc(Br)cc1,"inconclusive: 32.6 µM [inhibitor, single point]",–
C=CCn1c(N)c(C(=O)Nc2ccc(C)cc2)sc1=S,"inconclusive: 9.2 µM [activator, partial curve]",–
CN(C)c1ccc(C(=O)N/N=C/c2cc(Br)cc(Br)c2O)cc1,"inconclusive: 1.03 µM [inhibitor, full curve, poor fit]",–
O=C(CN1CCN(S(=O)(=O)c2ccc(Cl)s2)CC1)NCc1ccc(Cl)cc1,"inconclusive: 18.4 µM [inhibitor, partial curve]",–

SMILES,Potency,"activity change, negative = inhibition"
CN(CC(=O)Nc1ccccc1Cl)C(=O)CN1C(=O)NC(c2ccccc2)(c2ccccc2)C1=O,–,inactive: 5.6%
COc1cccc(-c2cc(C(=O)N3CCCCCC3)no2)c1,"inconclusive: 1.64 µM [activator, full curve]",–
Nc1ccc2oc(-c3cccs3)nc2c1,"inconclusive: 9.2 µM [activator, partial curve]",–
Cc1scc(C(=O)N/N=C/c2ccsc2)c1C,"inconclusive: 7.31 µM [activator, partial curve]",–
CNc1ncc(C(=O)c2ccc(-c3ccccc3)cc2)s1,"inconclusive: 9.2 µM [activator, partial curve]",–
CC(C)CSC1=NSC2=NC(=O)/C(=C\c3ccccc3)C(=N)N12,"inconclusive: 5.8 µM [activator, full curve]",–
CCc1noc(C)c1C(=O)Nc1ccc(C)c(S(=O)(=O)N2CCCCCC2)c1,"inconclusive: 25.9 µM [inhibitor, single point]",–
COC(=O)c1cccc(NC(=O)c2cc3sccc3n2C)c1,"inconclusive: 2.06 µM [activator, partial curve]",–
C=CCN(C(=O)Nc1ccc(OC)cc1)c1nnc(-c2ccncc2)s1,"inconclusive: 23.1 µM [inhibitor, single point]",–
Cc1ccc(NC(=O)c2ccc3c(c2)NC(=O)CS3)nc1,"inconclusive: 3.26 µM [activator, partial curve, poor fit]",–
c1ccc2c(c1)ncc1cccn12,"inconclusive: 25.9 µM [inhibitor, partial curve]",–
CCN1C(=O)[C@H]2[C@@H](c3ccc(-c4ccc5c(c4)OCO5)c(OC)c3)N[C@@](C)(C(=O)OC)[C@H]2C1=O,–,inactive: -0.08%
CC/C(=N/NC(=O)c1ccc(Br)o1)c1ccc(Cl)cc1,–,inactive: 20.5%
CC12CCC(=O)N1C(C(=O)N1CCN(c3ccc([N+](=O)[O-])cc3)CC1)CS2 (centres undefined),"inconclusive: 29.1 µM [inhibitor, single point]",–
Cc1ccccc1SCCNC(=O)c1ccccc1Br,"inconclusive: 29.1 µM [activator, single point]",–
CCOC(=O)C(C)Oc1cccc2c(=O)n(CC(=O)NCc3ccc4c(c3)OCO4)ccc12 (centres undefined),"inconclusive: 1.16 µM [inhibitor, single point]",–
CCCc1[nH]n(-c2ccc([N+](=O)[O-])cc2)c(=O)c1C=NCCN1CCNCC1,"inconclusive: 16.4 µM [activator, partial curve, poor fit]",–
CC(=O)C1=C(C)NC(SCC(=O)c2ccccc2)=C(C#N)C1c1ccco1 (centres undefined),"inconclusive: 4.11 µM [activator, full curve]",–
COCCOC(=O)c1c(NC(=O)COC(=O)c2ccc(C)o2)sc(C(N)=O)c1C,"inconclusive: 8.2 µM [inhibitor, partial curve, poor fit]",–
Cc1ccccc1OCc1nnc2c3cnn(C)c3ncn12,"inconclusive: 11.2 µM [activator, partial curve]",–
Cc1ccc(C)c(-c2csc(-c3cccnc3)n2)c1,–,inactive: 16.2%
CN(Cc1ccccc1)C(=O)c1ccccc1Br,–,inactive: -15%

SMILES,Potency,"activity change, negative = inhibition"
COc1cccc(NC(=O)c2oc3ccccc3c2NC(C)=O)c1,"inconclusive: 7.31 µM [activator, partial curve]",–
O=C(NCCN1CCOCC1)C1CCN(c2ncnc3c2sc2cccc(F)c23)CC1,"inconclusive: 23.1 µM [inhibitor, partial curve, poor fit]",–
COc1ccc(CCNC(=O)c2cc(-c3ccccc3)c(N3CCOCC3)s2)c(OC)c1OC,"inconclusive: 29.1 µM [inhibitor, single point]",–
CSc1ccc(/C=N/NC(=O)c2cccc(Cl)c2)cc1,"inconclusive: 3.26 µM [activator, full curve]",–
CCOC(=O)C(C)Oc1cccc2c(=O)n(CC(=O)N3CCCc4ccccc43)ccc12 (centres undefined),"inconclusive: 29.1 µM [inhibitor, single point]",–
Cc1ccc(-c2nnc(-c3ccccc3)c(N3CCOCC3)n2)cc1,"inconclusive: 35.5 µM [inhibitor, single point]",–
Cc1ccc(C(=O)Nc2ccc(C(=O)N/N=C/c3ccc(C)o3)cc2)cc1,"inconclusive: 18.3 µM [activator, partial curve]",–
Cc1cccc2cc(C#N)c(SCC(=O)N3CCC(C)CC3)nc12,"inconclusive: 29.1 µM [inhibitor, single point]",–
COc1ccc(Nc2nc(-c3ccccc3O)nc3ccccc23)cc1,"inconclusive: 23.1 µM [inhibitor, single point]",–
Cc1ccc(NC(=S)NCCc2ccccc2)nc1,"inconclusive: 6.51 µM [activator, partial curve]",–
COc1cccc(/C=C2\CCC(C3CCCC3)C2=O)c1 (centres undefined),"inconclusive: 18.3 µM [activator, partial curve]",–
c1ccc2c(c1)Nc1cc3ccccc3cc1S2,–,inconclusive: 183% [activator]
COc1cc(CN2CCCC(CO)(Cc3ccccc3C)C2)cc2c1OCO2 (centres undefined),"inconclusive: 16.4 µM [inhibitor, partial curve, poor fit]",–
O=C(N/N=C/c1cc(O)ccc1[N+](=O)[O-])c1ccc2c(c1)OCCO2,"inconclusive: 4.11 µM [activator, full curve]",–
CCN(CC)S(=O)(=O)c1ccc(NC(=O)C2CCCN(C(=O)c3ccc(Cl)cc3)C2)cc1 (centres undefined),active: 18.4 µM,–
Cc1c(C)c2ccc(OC(C)C(=O)NCCN3CCOCC3)c(C)c2oc1=O (centres undefined),"inconclusive: 5.8 µM [activator, partial curve, poor fit]",–
CC(C)CC(CO)N1CCN(C(=O)c2ccc(C(C)(C)C)cc2)CCC1=O (centres undefined),"inconclusive: 32.6 µM [activator, partial curve, poor fit]",–
COc1ccc(-c2nc3ccccc3[nH]2)cc1,"inconclusive: 0.731 µM [activator, partial curve]",–
CC(C)(C)CC(C)(C)NC(=S)NC1CCN(Cc2ccccc2)CC1,–,inactive: -5.42%
CCCN1CCC(=O)N(CCSc2ccc(NC(C)=O)cc2)CC1,–,inconclusive: 33.5% [activator]

# Exported with tabs: entries from further up.
SMILES	Potency	activity change, negative = inhibition
O=C(NCCN1CCOCC1)C1CCN(c2ncnc3c2sc2cccc(F)c23)CC1	inconclusive: 23.1 µM [inhibitor, partial curve, poor fit]	–
CSc1ccc(/C=N/NC(=O)c2cccc(Cl)c2)cc1	inconclusive: 3.26 µM [activator, full curve]	–
Cc1ccc(C(=O)Nc2ccc(C(=O)N/N=C/c3ccc(C)o3)cc2)cc1	inconclusive: 18.3 µM [activator, partial curve]	–
COc1cccc(/C=C2\CCC(C3CCCC3)C2=O)c1 (centres undefined)	inconclusive: 18.3 µM [activator, partial curve]	–
CCN(CC)S(=O)(=O)c1ccc(NC(=O)C2CCCN(C(=O)c3ccc(Cl)cc3)C2)cc1 (centres undefined)	active: 18.4 µM	–
COc1ccc(-c2nc3ccccc3[nH]2)cc1	inconclusive: 0.731 µM [activator, partial curve]	–
